Data source: PubChem BioAssay AID652243 (Drosophila RNAi Screening Center, 2013)
The screen tested about 24,000 reagents; this is an unselected part of those that have a named target and a result. Of all reagents, 246 (1%) were called active. 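Plates not normalised; calls are printed but the firefly/Renilla ratio behind them is not deposited; fold cut for lowering reported inconsistently.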 The raw values are shown without normalisation. No sequences are given here. Not stated in the record: the amount of reagent.

- Screen: 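Fly regulators of androgen-dependent reporter output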 (primary screen)
- System: Drosophila S2R+ cells
- Reagents: long dsRNA against Drosophila genes
- Time to read-out: 72 h (48 h, then 24 h hormone)
- Challenge: synthetic androgen R1881 at 10 nM for 24 h
- Measurement: 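Firefly light from an androgen-responsive reporter and Renilla control light per well, raw and unnormalised, for each of two replicates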
- Reading the numbers: firefly reporter light: higher = more light from androgen-responsive reporter; Renilla control light: higher = more constitutive control signal (cell number, transfection)
- Rule for the call: 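Across duplicate plates, a knock-down whose log firefly/Renilla ratio shifted a set fold down or up from the GFP/LacZ control mean was a hit; the downward cut appears as both 1.5 and 3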
- Calls: active = hit: reporter lowered or raised; inactive = no hit

CG6839 [DRSC10723]: firefly reporter light, replicate 1 = 39717; firefly reporter light, replicate 2 = 19372; Renilla control light, replicate 1 = 3.93e5; Renilla control light, replicate 2 = 1.89e5; call = inactive
ZnT49B [DRSC07225]: firefly reporter light, replicate 1 = 2.95e5; firefly reporter light, replicate 2 = 2.08e5; Renilla control light, replicate 1 = 2.10e6; Renilla control light, replicate 2 = 1.60e6; call = inactive
CG5217 [DRSC15740]: firefly reporter light, replicate 1 = 2.83e5; firefly reporter light, replicate 2 = 3.27e5; Renilla control light, replicate 1 = 2.77e6; Renilla control light, replicate 2 = 2.62e6; call = inactive
ZnT86D [DRSC16091]: firefly reporter light, replicate 1 = 1.40e5; firefly reporter light, replicate 2 = 1.40e5; Renilla control light, replicate 1 = 1.73e6; Renilla control light, replicate 2 = 2.18e6; call = inactive
CG33189 [DRSC21427]: firefly reporter light, replicate 1 = 6.59e5; firefly reporter light, replicate 2 = 7.49e5; Renilla control light, replicate 1 = 2.32e6; Renilla control light, replicate 2 = 2.06e6; call = inactive
CG33189 [DRSC25923]: firefly reporter light, replicate 1 = 2.88e5; firefly reporter light, replicate 2 = 2.74e5; Renilla control light, replicate 1 = 8.65e5; Renilla control light, replicate 2 = 9.05e5; call = inactive
CG6686 [DRSC02979]: firefly reporter light, replicate 1 = 7.46e5; firefly reporter light, replicate 2 = 8.78e5; Renilla control light, replicate 1 = 2.16e6; Renilla control light, replicate 2 = 2.49e6; call = inactive
CG6686 [DRSC27705]: firefly reporter light, replicate 1 = 2.55e5; firefly reporter light, replicate 2 = 2.20e5; Renilla control light, replicate 1 = 4.07e5; Renilla control light, replicate 2 = 6.76e5; call = inactive
Mpcp2 [DRSC11226]: firefly reporter light, replicate 1 = 2.00e5; firefly reporter light, replicate 2 = 1.43e5; Renilla control light, replicate 1 = 2.59e6; Renilla control light, replicate 2 = 2.23e6; call = inactive
Vamp7 [DRSC06599]: firefly reporter light, replicate 1 = 3.41e5; firefly reporter light, replicate 2 = 2.64e5; Renilla control light, replicate 1 = 2.31e6; Renilla control light, replicate 2 = 1.97e6; call = inactive
Not10 [DRSC14129]: firefly reporter light, replicate 1 = 89677; firefly reporter light, replicate 2 = 63918; Renilla control light, replicate 1 = 4.41e5; Renilla control light, replicate 2 = 3.64e5; call = inactive
Z600 [DRSC11317]: firefly reporter light, replicate 1 = 2.38e5; firefly reporter light, replicate 2 = 1.68e5; Renilla control light, replicate 1 = 2.84e6; Renilla control light, replicate 2 = 2.20e6; call = inactive
UQCR-11 [DRSC38687]: firefly reporter light, replicate 1 = 6.76e5; firefly reporter light, replicate 2 = 7.29e5; Renilla control light, replicate 1 = 2.00e6; Renilla control light, replicate 2 = 2.25e6; call = inactive
CG6569 [DRSC16067]: firefly reporter light, replicate 1 = 2.76e5; firefly reporter light, replicate 2 = 2.71e5; Renilla control light, replicate 1 = 3.20e6; Renilla control light, replicate 2 = 3.28e6; call = inactive
SPE [DRSC15135]: firefly reporter light, replicate 1 = 55751; firefly reporter light, replicate 2 = 78037; Renilla control light, replicate 1 = 3.65e5; Renilla control light, replicate 2 = 4.45e5; call = inactive
SPE [DRSC25455]: firefly reporter light, replicate 1 = 7.71e5; firefly reporter light, replicate 2 = 6.53e5; Renilla control light, replicate 1 = 7.70e5; Renilla control light, replicate 2 = 6.95e5; call = inactive
CG16964 [DRSC02546]: firefly reporter light, replicate 1 = 2.96e5; firefly reporter light, replicate 2 = 2.62e5; Renilla control light, replicate 1 = 1.54e6; Renilla control light, replicate 2 = 1.88e6; call = inactive
CG16964 [DRSC26799]: firefly reporter light, replicate 1 = 4.73e5; firefly reporter light, replicate 2 = 4.64e5; Renilla control light, replicate 1 = 6.60e5; Renilla control light, replicate 2 = 4.93e5; call = inactive
jvl [DRSC13053]: firefly reporter light, replicate 1 = 45375; firefly reporter light, replicate 2 = 20345; Renilla control light, replicate 1 = 53354; Renilla control light, replicate 2 = 56823; call = inactive
jvl [DRSC15495]: firefly reporter light, replicate 1 = 62259; firefly reporter light, replicate 2 = 1.19e5; Renilla control light, replicate 1 = 6.07e5; Renilla control light, replicate 2 = 8.93e5; call = inactive
jvl [DRSC27452]: firefly reporter light, replicate 1 = 2.87e5; firefly reporter light, replicate 2 = 2.97e5; Renilla control light, replicate 1 = 7.54e5; Renilla control light, replicate 2 = 7.53e5; call = inactive
jvl [DRSC38672]: firefly reporter light, replicate 1 = 8.16e5; firefly reporter light, replicate 2 = 8.83e5; Renilla control light, replicate 1 = 1.33e6; Renilla control light, replicate 2 = 1.30e6; call = inactive
CG12107 [DRSC06102]: firefly reporter light, replicate 1 = 1.55e6; firefly reporter light, replicate 2 = 1.22e6; Renilla control light, replicate 1 = 1.71e6; Renilla control light, replicate 2 = 1.88e6; call = inactive
CG31064 [DRSC14756]: firefly reporter light, replicate 1 = 2.41e5; firefly reporter light, replicate 2 = 1.61e5; Renilla control light, replicate 1 = 2.37e6; Renilla control light, replicate 2 = 2.86e6; call = inactive
CG31064 [DRSC15941]: firefly reporter light, replicate 1 = 1.42e5; firefly reporter light, replicate 2 = 95389; Renilla control light, replicate 1 = 2.10e6; Renilla control light, replicate 2 = 1.98e6; call = inactive
CG31064 [DRSC15942]: firefly reporter light, replicate 1 = 1.13e5; firefly reporter light, replicate 2 = 1.09e5; Renilla control light, replicate 1 = 1.59e6; Renilla control light, replicate 2 = 2.26e6; call = inactive
CG31064 [DRSC15943]: firefly reporter light, replicate 1 = 38687; firefly reporter light, replicate 2 = 49393; Renilla control light, replicate 1 = 9.86e5; Renilla control light, replicate 2 = 1.54e6; call = active

Entries above marked active, once more:
CG31064 [DRSC15943]: firefly reporter light, replicate 1 = 38687; firefly reporter light, replicate 2 = 49393; Renilla control light, replicate 1 = 9.86e5; Renilla control light, replicate 2 = 1.54e6; call = active
